Results are given in words; binding and its absence hold for the method and conditions named. For some assays here: Binding can be weak; no strength is given.
Key:
rIgG.cεmx.migis (human) [1] = assay: ELISA of D5 at 1.25 to 20 µg/ml on IgG Fc.cεmx or IgG Fc.cεmx.migis
rIgG.cεmx (human) [2] = assay: as above
rIgG.cεmx.migis (human) [3] = assay: ELISA, D5 at 1.25 to 20 µg/ml (FIG. 7C)
rIgG.cεmx.migis (human) [4] = assay: ELISA (FIG. 7C)
rIgG.cεmx (human) [5] = assay: ELISA (FIG. 7C)

B1: D5 antibody (antibody, V domains shown)
VH: EVQLLESGGGLVQPGGSLRLSCAASGFTFSKYHMVWVRQAPGKGLEWVSSIGPSGGNTYYADSVKGRFTISRDNSKNTLYLQMNSLRAEDTATYYCARALGATFDYWGQGTLVTVSS
VL: DIQMTQSPLSLPVTLGQPASISCKSSQSLVYRDGITYLSWFQQRPGQSPRRLIYKVSNRDSGVPDRFSGSGSDSNFTLKISSVEAEDVGLYFCMQGSHWPFTFGPGTKVDIKR
binding (rIgG.cεmx.migis (human) [1]): binds | binding (rIgG.cεmx (human) [2]): no binding (tested: 20 µg/ml) | binding (rIgG.cεmx.migis (human) [3]): binds | binding (rIgG.cεmx.migis (human) [4]): binds | binding (rIgG.cεmx (human) [5]): no binding (tested: 1.25 to 20 µg/ml)
